From paper PMC7819943, “Rice protein-binding microarrays: a tool to detect cis-acting elements near promoter regions in rice”
The list shows a part of the results.

What follows are sequences tested against T1, OsSMF1 (Oryza sativa, UniProt Q6ZLB0 1-436) (assay: protein-binding microarray (RPBM); PBS, 2% BSA, 51.3 ng/ul salmon testes DNA, 50 uM zinc acetate, 200 nM TF, 25 C, 1 h; high values mean tight binding). Conditions: protein: recombinant; tags: N-terminal polyhistidine and DsRed monomer fusion (pET32a); chain copies: 2; label: CyDye5-dUTP incorporated in the synthesized complementary strand; 3' TTTTT single-stranded linker to array surface; dsDNA, one strand shown.
T1 sequence: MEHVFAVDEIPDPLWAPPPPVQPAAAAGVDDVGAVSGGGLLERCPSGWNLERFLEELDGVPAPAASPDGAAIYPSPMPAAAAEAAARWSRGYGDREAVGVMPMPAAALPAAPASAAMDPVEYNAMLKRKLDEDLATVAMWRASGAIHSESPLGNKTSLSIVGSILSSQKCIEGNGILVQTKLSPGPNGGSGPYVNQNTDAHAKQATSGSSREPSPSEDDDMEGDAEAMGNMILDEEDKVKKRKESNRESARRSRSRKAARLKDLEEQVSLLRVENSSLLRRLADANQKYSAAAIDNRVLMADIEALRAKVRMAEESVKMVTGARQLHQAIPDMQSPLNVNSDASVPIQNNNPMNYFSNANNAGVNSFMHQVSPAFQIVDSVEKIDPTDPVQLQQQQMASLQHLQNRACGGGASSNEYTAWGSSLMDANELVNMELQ
In short: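 Binding signal here means per-feature fluorescence intensity in arbitrary units. The values were read on an Axon 4000B scanner after a custom Agilent array, double-stranded by primer extension with Cy5-dUTP, was incubated with 200 nM protein at 25 °C for 1 h in PBS with 2% BSA, salmon testes DNA and 50 µM zinc acetate, then washed. The proteins were transcription factors with an N-terminal polyhistidine tag and DsRed, expressed in E. coli BL21-CodonPlus and purified on Ni–NTA.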

Row | Sequence | binding signal
1 | TGCCCGCATGCCACCGTCAACACCGCTGTGGCCCTCGCCCCGGAGTCACCTAGTGCAG | 3270 fluorescence intensity (a.u.)
2 | GTCATTGTCATCCTATAGTCTTTTAACAACTCGATCAGAACGGAGTCACCTAGTGCAG | 18000 fluorescence intensity (a.u.)
3 | CGGAGCATATCGTCCTTTTCGTTGTCGGCGGCGGCGTAGGCGGAGTCACCTAGTGCAG | 3450 fluorescence intensity (a.u.)
4 | TTCGATACATAATCTGTTGCGATAAAACATACTCCCTCCGCGGAGTCACCTAGTGCAG | 24700 fluorescence intensity (a.u.)
5 | GCCGGAGCTGCACGACTTCGGACCCGCCGCCGCCGACTCCCGGAGTCACCTAGTGCAG | 3850 fluorescence intensity (a.u.)
6 | GGAAGGGAGAGAGATGACATGGCAGACTGATATGTGGGGCCGGAGTCACCTAGTGCAG | 9860 fluorescence intensity (a.u.)
7 | GTGGCACATCCACGTGGGCCACGTTGGCGGTTGGCCCCTTCGGAGTCACCTAGTGCAG | 18700 fluorescence intensity (a.u.)
8 | GGCTACTAACTTGGGTGACTAGGCAGCAATAAGGTGACCTCGGAGTCACCTAGTGCAG | 5940 fluorescence intensity (a.u.)
9 | TAAGGAAACAAGCCCGCGATGTGTCGTGTGCAGCAATCTTCGGAGTCACCTAGTGCAG | 3440 fluorescence intensity (a.u.)
10 | CATTAATATTGATATGGTTCGCTGTTTGCATATATGTGAACGGAGTCACCTAGTGCAG | 3410 fluorescence intensity (a.u.)
11 | ACACGAGCCGAGAGCAAAACGTCCCCGTCCCGCCGTCCCGCGGAGTCACCTAGTGCAG | 3290 fluorescence intensity (a.u.)
12 | GCCCATATAAAGAAACGCTGCACTGGATGGCTTGTTGCTCCGGAGTCACCTAGTGCAG | 3560 fluorescence intensity (a.u.)
13 | AGTGTGTACGACTGGAACGGCTGAGCACGTCGCTACGCACCGGAGTCACCTAGTGCAG | 3470 fluorescence intensity (a.u.)
14 | GAATTATGATTCAATAAATCTTAGAATCCACGTGGCTCCCCGGAGTCACCTAGTGCAG | 22100 fluorescence intensity (a.u.)
15 | TTTTCCTCCGTTCTCCGCCCACGCGCCGTCATCGCTGCCCCGGAGTCACCTAGTGCAG | 16000 fluorescence intensity (a.u.)
16 | ACAATATTATATCCAACGTCAACACCAGACTATATCAATGCGGAGTCACCTAGTGCAG | 4190 fluorescence intensity (a.u.)
17 | AGCGGGCCCACCAAGTCAGCCTCACACCTTCTTCTTCTTCCGGAGTCACCTAGTGCAG | 4150 fluorescence intensity (a.u.)
18 | CTGTTTGCTCCCTGACGGAGAGTGAAGGCTGAAGAGTTAACGGAGTCACCTAGTGCAG | 4180 fluorescence intensity (a.u.)
19 | GCTGGCTACTGTGTGTGTCGTGTGAGTAGGGAGATGTCGTCGGAGTCACCTAGTGCAG | 3370 fluorescence intensity (a.u.)
20 | GGGGCTCGTCGCCATGGCATTCACGGCGGGGATGCGACATCGGAGTCACCTAGTGCAG | 31100 fluorescence intensity (a.u.)
21 | ATGCATGGAAATTAATTAATCTAGCTCGTTGTCGACGTCACGGAGTCACCTAGTGCAG | 4280 fluorescence intensity (a.u.)

Row | Sequence | binding signal
22 | ACCTAGTAATATTATTATTTATTTGTACATTGACGCGTGGCGGAGTCACCTAGTGCAG | 13800 fluorescence intensity (a.u.)
23 | GAGCGTACCTGTCACCGTCTCATGTGTAATAGGCTAACAGCGGAGTCACCTAGTGCAG | 4260 fluorescence intensity (a.u.)
24 | ATGAGGACACCTCACCACTATTGCTTGCAGAACCACAGATCGGAGTCACCTAGTGCAG | 4500 fluorescence intensity (a.u.)
25 | TTTTGTATTTCCTCTCGTAGACTTTCTTTGGTCTTACATTCGGAGTCACCTAGTGCAG | 19700 fluorescence intensity (a.u.)
26 | CTATGTGTGACTATGAGGTGGAGCAAAGGGATGTGATTGACGGAGTCACCTAGTGCAG | 4050 fluorescence intensity (a.u.)
27 | TCGTTCACGACTTTTGCAGACGGGCCATATGTGACTCGAGCGGAGTCACCTAGTGCAG | 3440 fluorescence intensity (a.u.)
28 | CTTCGACCCCTTATGACGTCGACTTCATGGACGAGGACGCCGGAGTCACCTAGTGCAG | 3630 fluorescence intensity (a.u.)
29 | TTATTTGGTTGATAATTACGTGTCTACGTTTATTTGTTACCGGAGTCACCTAGTGCAG | 6100 fluorescence intensity (a.u.)
30 | AATAATGGCTTTCGTTGTCCTTGTCACATCATAAACTTCTCGGAGTCACCTAGTGCAG | 4640 fluorescence intensity (a.u.)
31 | CACAATACCCACGCGTCTCCACTCTACCCTCTCCCACTGCCGGAGTCACCTAGTGCAG | 4160 fluorescence intensity (a.u.)
32 | TGCCTGAAATGTGACCGTACTTTGCATGGACAGGTTATGGCGGAGTCACCTAGTGCAG | 3510 fluorescence intensity (a.u.)
33 | TTCAGCCTGTCATCGTCAATTCGTCATCAGTTCATCGCTCCGGAGTCACCTAGTGCAG | 5390 fluorescence intensity (a.u.)
34 | TTAGTTTTACACGTAAATCGGACGTATGACGTGGGATTTCCGGAGTCACCTAGTGCAG | 14500 fluorescence intensity (a.u.)
35 | ACATACATATATATATATATATATACATACATATATATATCGGAGTCACCTAGTGCAG | 3740 fluorescence intensity (a.u.)
36 | GACGGTCCAGATCACGCCATATCATCCCTACCACACACTCCGGAGTCACCTAGTGCAG | 3310 fluorescence intensity (a.u.)
37 | TCTGGTTTTGTAGTTTAGGGTTATGGTTTAGATTTCGATCCGGAGTCACCTAGTGCAG | 3850 fluorescence intensity (a.u.)
38 | AGCGCTAGATTGGCCATCGACCACATCACCAACAACTCTCCGGAGTCACCTAGTGCAG | 3620 fluorescence intensity (a.u.)
39 | ATCCGCCCTCCACCCGCCGCTGCCGACGTGGTCCGTCCTTCGGAGTCACCTAGTGCAG | 7810 fluorescence intensity (a.u.)
40 | ACGCTGCCATGTCAGCGAGATTGGCGTGACAATATTGTTTCGGAGTCACCTAGTGCAG | 7920 fluorescence intensity (a.u.)
41 | CTGAATGAGATGATGTAATGGTAGATTTGTGGACAGGAAACGGAGTCACCTAGTGCAG | 3610 fluorescence intensity (a.u.)
42 | AATGTTGTTTGGCTTATGTGTTCCTTATTTCCATCATCTGCGGAGTCACCTAGTGCAG | 13300 fluorescence intensity (a.u.)

An excerpt of these results, as comma-separated lines.
Row,Sequence,binding signal
38,AGCGCTAGATTGGCCATCGACCACATCACCAACAACTCTCCGGAGTCACCTAGTGCAG,3620 fluorescence intensity (a.u.)
39,ATCCGCCCTCCACCCGCCGCTGCCGACGTGGTCCGTCCTTCGGAGTCACCTAGTGCAG,7810 fluorescence intensity (a.u.)
